What all share (settings): 5 µM; treatment: days 7-14 after plating, readout day 21
Test [1] relates to hPSC-derived cortical neurons (WA09). Kind of test: nucleus area z-score vs screen plate; higher = larger nuclei (more mature).
Test [2] shares this test system. The test is described as follows: total neurite length per nucleus (MAP2) z-score; higher = more neurite growth.
Test [3] shares this test system. Kind of test: nucleus roundness z-score vs screen plate; higher = rounder nuclei (more mature).
The test system is the same in test [4]. Kind of test: KCl-induced FOS+/EGR-1+ double-positive nuclei fraction z-score (KCl minus unstimulated); higher = stronger activity-induced IEG response.

Structures can show the parent of a compound that is named as a salt. Some of the results follow. Small differences around the control level are noise.

Consider `CCc1cc2c(s1)-n1c(C)nnc1CN=C2c1ccccc1Cl` [Etizolam], for which the nucleus area z-score in test [1] was -0.6. The “total neurite length per nucleus (z-score)” value in test [2] was -1.02. Besides, the nucleus roundness z-score in test [3] is -0.572. Also, in test [4], the “KCl-induced FOS+/EGR-1+ double-positive nuclei fraction z-score” value was -0.00833.
Taken in the same sequence, the figures for `O=S(=O)(CC1CS1)c1ccc(Oc2ccccc2)cc1` (stereo not given) were 0.303, 0.0971, 0.242 and 0.00963.
The corresponding values for `CC(=O)OC(C)(C)/C=C/C(=O)[C@](C)(O)[C@H]1[C@H](O)C[C@@]2(C)[C@@H]3CC=C4[C@H](C[C@H](O)C(=O)C4(C)C)[C@]3(C)C(=O)C[C@]12C` [Cucurbitacin B] are -11.7, -2.59, -5.8 and -0.254.
The corresponding values for `O=[N+]([O-])/C=C/c1ccc2c(c1)OCO2` [MNS (3_4-Methylenedioxy-_-nitrostyrene_ MDBN)] are 0.0981, 0.8, 0.377 and -1.07.
As to `Cc1ccc(-n2nccn2)c(C(=O)N2CCN(c3nc4cc(Cl)ccc4o3)CC[C@H]2C)c1` [Suvorexant (MK-4305)], in test [1], the nucleus area z-score was 0.703. Further, in test [2], the “total neurite length per nucleus (z-score)” value is -0.543. The same compound came in with a nucleus roundness z-score in test [3] of -1.01. Besides, in test [4], the “KCl-induced FOS+/EGR-1+ double-positive nuclei fraction z-score” value is -0.777.
Taken in the same sequence, the figures for `C/C(=C\c1csc(C)n1)[C@@H]1C[C@@H]2O[C@@H]2CCC[C@H](C)[C@H](O)[C@@H](C)C(=O)C(C)(C)[C@@H](O)CC(=O)O1` [Epothilone A] were -0.507, 1.51, -0.771 and -1.82.
Taken in the same sequence, the figures for `CC(C)=CCC[C@]1(C)C=Cc2c(O)c3c(c(CC=C(C)C)c2O1)O[C@]12C(=C[C@@H]4C[C@H]1C(C)(C)O[C@@]2(C/C=C(/C)C(=O)O)C4=O)C3=O` [Gambogic Acid] were -18.1, -5.3, -6.67 and -0.834.
Regarding `CCCCCCCCCCCCCCCC[n+]1ccccc1` [Cetylpyridinium Chloride], in test [1], the nucleus area z-score is -14.7. The “total neurite length per nucleus (z-score)” value in test [2] was -4.13. Besides, the nucleus roundness z-score in test [3] was -2.76. The “KCl-induced FOS+/EGR-1+ double-positive nuclei fraction z-score” value in test [4] was -1.03.
With `CNC1CC(N)C(O)C(OC2OC(CO)C(O)C3OC4(OC(C(N)CO)C(O)C(O)C4O)OC23)C1O` (stereo not given) [Hygromycin B], the nucleus area z-score in test [1] is -3.09. Also, in test [2], the “total neurite length per nucleus (z-score)” value was -4.76. Further, the nucleus roundness z-score in test [3] was -1.68. The “KCl-induced FOS+/EGR-1+ double-positive nuclei fraction z-score” value in test [4] was -0.596.
Consider `O=C1CC[C@@]2(O)[C@H]3Cc4ccc(O)c5c4[C@@]2(CCN3CC2CC2)[C@H]1O5` [Naltrexone HCl], for which the nucleus area z-score in test [1] is -0.824. In addition, in test [2], the “total neurite length per nucleus (z-score)” value was found to be 0.3. The compound also returned a nucleus roundness z-score in test [3] of -0.191. Further, the “KCl-induced FOS+/EGR-1+ double-positive nuclei fraction z-score” value in test [4] was -0.0799.
